No constants are given. Whether binding was seen depends on the method and setting. A result given as binding can be weak or reduced; the word gives no strength.
What was measured:
[1] = target: human AXL with a cynomolgus monkey extracellular domain (ECD) (cynomolgus monkey (Macaca fascicularis); human); assay: flow cytometry; transfected HEK293T cells
[2] = target: human AXL with a mouse ECD (mouse ECD in human AXL); assay: flow cytometry; transfected HEK293T cells

| binding [1] | binding [2] | Binder |
| --- | --- | --- |
| binds | – | IgG1-AXL-148 (antibody, V domains shown) VH: EVQLLESGGGLVQPGGSLRLSCAASGFTFSSYAMTWVRQAPGKGLEWVSAISISGGSTFYADSVKGRFTISRDNSKNTLYLQMNSLRAEDTAVYYCRGYSGYVYDAFDFWGQGTMVTVSS VL: DIQMTQSPSSLSASVGDRVTITCRASQGISNWLAWYQQKPEKAPKSLIYAASSLQSGVPSRFSGSGSGTDFTLTISSLQPEDFATYYCQQYNSYPLTFGGGTKVEIK |
| binds | – | IgG1-AXL-733 (antibody, V domains shown) VH: QVQLVESGGGVVQPGRSLRLSCAASGFSFSTYAMHWVRQAPGKGLEWVAVISYDGDNKYSADSVKGRFTISRDNSKNTLYLQMNSLRAEDTAVYYCARGRKLGIDAFDIWGQGTMVTVSS VL: AIQLTQSPSSLSASVGDRVTITCRASQGISSALAWYQQKPGKAPKLLIYDASSLESGVPSRFSGSGSGTDFTLTISGLQPEDFATYYCQQFNSYPFTFGPGTKVDIK |
| binds | binds | IgG1-AXL-183 (antibody, V domains shown) VH: QVQLQQWGAGLLKPSETLSLTCAVYGGSFSGYYWSWIRQPPGKGLEWIGEINQSGSTNYNPSLKSRVTISVDTSKNQFSLKLSSVTAADTSVYYCASGNWDHFFDYWGQGTLVTVSS VL: DIQMTQSPSSVSASVGDRVTITCRASQGISSWLAWYQHKPGKAPKLLIYATSSLQSGVTSRFSGSGSGTDFTLTISSLQPEDFATYYCQQAKSFPWTFGQGTKVEIK |
| binds | binds | IgG1-AXL-183-N52Q (antibody, V domains shown) VH: QVQLQQWGAGLLKPSETLSLTCAVYGGSFSGYYWSWIRQPPGKGLEWIGEIQQSGSTNYNPSLKSRVTISVDTSKNQFSLKLSSVTAADTSVYYCASGNWDHFFDYWGQGTLVTVSS VL: DIQMTQSPSSVSASVGDRVTITCRASQGISSWLAWYQHKPGKAPKLLIYATSSLQSGVTSRFSGSGSGTDFTLTISSLQPEDFATYYCQQAKSFPWTFGQGTKVEIK |
